Test results from PubChem BioAssay AID1688 (National Center for Advancing Translational Sciences (NCATS), 2009).
In all, about 220,000 compounds went through this assay and about 2,400 (1.1%) were called active. The shares of active, inactive and inconclusive entries below differ from those in the screen. Calls follow the shape of the dose curve; as a rule, active = well fitted inhibition curve with a large enough effect; inconclusive = small, poorly fitted or top-dose-only effect, or effect the other way; inactive = no such curve, though single readings can be large or run the other way. Potencies of inconclusive entries are doubtful fits and often do not repeat.

Experiment: qHTS Multiplex Assay to Identify Dual Action Probes in a Cell Model of Huntington: Aggregate Formation (GFP); also: nearly all actives have a fitted effect of over 60% in size
Details: PC12 HttQ103-GFP aggregates, Acumen cytometry, 40 h; activity change, negative = inhibition: at 46.1 µM (top of the series) unless noted
In short: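 Aggregates are detected as GFP objects 1–25 µm with signal 6 STDEV over background in lysates of induced PC12 cells. These carry Huntingtin exon 1 with 103 glutamines fused to GFP under an ecdysone promoter; compounds titrated.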
% is scaled to controls: 0 for no effect and ±100 for the full control effect; potency is read from the fitted curve at half-maximal effect.

| SMILES | Potency | activity change, negative = inhibition |
| --- | --- | --- |
| CCCC(=O)NC(c1ccccc1OC)c1ccc2cccnc2c1O (centres undefined) | inconclusive: 1.41 µM [inhibitor, partial curve] |  |
| O=c1nc(N/N=C/c2ccccn2)cn[nH]1 | active: 8.91 µM |  |
| FC(F)(F)c1ccccc1NC(=S)N/N=C1\CC2CC=CC12 (centres undefined) | inconclusive: 3.55 µM [activator, partial curve] |  |
| O=C(NCCc1ccccn1)C(F)(F)C(F)(F)C(F)(F)C(F)(F)C(F)(F)C(F)F |  | inactive: -22.4% |
| CCOc1cc(/C=C2/C(=O)ON=C2C)ccc1OCc1ccccc1F |  | inactive: 12.3% |
| Cc1ccccc1NC(=S)NNC(=O)c1csc2c1CCC(C)C2 (centres undefined) | inconclusive: 35.5 µM [inhibitor, single point] |  |
| COc1cccc(C2=CC(c3cccc(OC)c3OC(F)F)n3nnnc3N2)c1 (centres undefined) |  | inactive: -10.6% |
| COc1ccc(C(C[N+](=O)[O-])C2(c3ccc(OC)c(OC)c3)C(=O)c3ccccc3C2=O)cc1 (centres undefined) | inconclusive: 17.8 µM [inhibitor, single point] |  |
| O=C(C1CC1)N1CCc2cc(S(=O)(=O)N(CCO)Cc3ccccc3)ccc21 | inconclusive: 15.8 µM [inhibitor, single point] |  |
| COCC(C)NC(=O)c1noc2c1CCc1cc(OC)ccc1-2 (centres undefined) | inconclusive: 2.82 µM [inhibitor, partial curve] |  |
| CCCOC(=O)Cc1n[nH]c(=O)[nH]c1=O |  | inactive: -10.9% |
| Cn1cnnc1Sc1ccc(C(=O)NCCC(c2ccccc2)c2ccccc2)cc1[N+](=O)[O-] |  | inactive: -3.51% |
| O=[N+]([O-])c1ccc(S(=O)(=O)Nc2ccc(-c3csc(-c4ccccc4)n3)cc2)cc1 | inconclusive: 35.5 µM [inhibitor, single point] |  |
| CCCCN1CN(S(=O)(=O)c2cccs2)c2nc3ccccc3nc21 | inconclusive: 1.12 µM [activator, single point] |  |
| COc1ccc(CNc2oc(COc3ccc(Cl)cc3)nc2C#N)cc1 | inconclusive: 35.5 µM [inhibitor, single point] |  |
| COc1cc2c(cc1OC)C(C)N(C(=O)c1cc3c(=O)oc4ccc(C)cc4c3s1)CC2 (centres undefined) | inconclusive: 20 µM [inhibitor, partial curve] |  |
| CC(=O)c1cccc(NC(=O)Nc2cccnc2)c1 | active: 7.94 µM |  |
| NC(=O)c1ccc(N=Nc2c(-c3ccccc3)[nH]n(-c3ccccc3)c2=O)cc1 |  | inactive: 0.335% |
| C=CCn1c(COc2ccccc2F)nnc1SCC(=O)Nc1cc2oc3ccccc3c2cc1OC | inconclusive: 35.5 µM [inhibitor, single point] |  |
| O=C(NCc1cccnc1)c1ccc(-c2cc3ccccc3oc2=O)cc1 | inconclusive: 15.8 µM [inhibitor, single point] |  |
| O=C(NN=C1CCN(Cc2ccccc2)CC1)c1cc2ccccc2cc1O |  | inactive: -25% |
| Oc1c(Cl)cc(Cl)c2cccnc12 | active: 8.91 µM |  |
| CC(=O)c1sc(Nc2nc3ccc(F)cc3s2)nc1C | inconclusive: 35.5 µM [inhibitor, single point] |  |
| O=C(CSc1nnc(SCc2ccccc2)s1)N/N=C/C=C/c1ccco1 | inconclusive: 31.6 µM [activator, single point] |  |
| CCOC(=O)N1CCC(N(C(=O)Nc2ccc(Cl)c(Cl)c2)C(C)CC)CC1 (centres undefined) | inconclusive: 22.4 µM [inhibitor, single point] |  |

| SMILES | Potency | activity change, negative = inhibition |
| --- | --- | --- |
| CCS(=O)(=O)c1nc(S(=O)(=O)c2ccc(C)cc2)c(NCc2ccccn2)s1 |  | inactive: 6.51% |
| NC(=O)C1CCN(c2ccc(S(=O)(=O)N3CCC(Cc4ccccc4)CC3)cn2)CC1 |  | inactive: -28.2% |
| O=C1c2ccccc2-c2onc3ccc(Oc4ccccc4)c1c23 | inconclusive: 35.5 µM [inhibitor, single point] |  |
| Cc1nn(CC(=O)Nc2ccccn2)c(=O)c2ccccc12 | inconclusive: 1.26 µM [activator, partial curve] |  |
| CCOc1ccc(C(=O)NCC(=O)OCc2cc(C(C)=O)ccc2OC)cc1 | inconclusive: 5.62 µM [activator, single point] |  |
| COc1cc(NC(=O)CN2CC(c3ccccc3)CC2=O)cc(OC)c1 (centres undefined) |  | inactive: -19.6% |
| Fc1ccc(N2CCN(Cc3cnc(Oc4ccc(Br)cc4)s3)CC2)cc1 | inconclusive: 14.1 µM [inhibitor, single point] |  |
| CC1(C)Cc2ccccc2-c2c1c(=O)n(Cc1ccccc1)c1nnnn21 |  | inactive: -29.4% |
| COc1ccc(-c2c(C#N)c(N)nc3c2CCC3)cc1 |  | inactive: -23.4% |
| COC(=O)c1ccccc1NC(=O)CS(=O)(=O)Cc1nc(-c2ccc(C)cc2)oc1C | inconclusive: 251 µM [inhibitor, partial curve, poor fit] |  |
| Nc1cc(N2CCOCC2)c(Cl)cc1[N+](=O)[O-] |  | inactive: -7.54% |
| O=C(O)CC(c1cccc2ccccc12)n1cccc1 (centres undefined) | inconclusive: 5.62 µM [activator, single point] |  |
| Cc1cc(-c2n[nH]c(=S)n2/N=C/c2ccc(Cl)c([N+](=O)[O-])c2)n[nH]1 | inconclusive: 6.31 µM [activator, partial curve] |  |
| Cc1cc(C)nc(/N=C2\NC(=O)CC(C(=O)O)N2c2ccc(Oc3ccccc3)cc2)n1 (centres undefined) |  | inactive: 1.03% |
| COc1ccc(C(=O)Nc2sc3c(c2C#N)CCN(C(C)=O)C3)cc1 |  | inactive: 0.756% |
| Cc1sc2nc(C3CC3)nc(NCCNS(C)(=O)=O)c2c1C |  | inactive: -13.6% |
| Cc1ccccc1-c1nsc(SCC(=O)c2ccc(Cl)cc2)n1 |  | inactive: 10.8% |
| Oc1ccccc1CNc1cnc2ccccc2c1 | active: 35.5 µM |  |
| CC(C)c1ccc(NNC(=O)C2CCC2)cc1 |  | inactive: 18.1% [at 9.22 µM] |
| O=C(NC(=S)Nc1ccc(Cc2ccncc2)cc1)c1ccccc1 |  | inactive: 12.9% |
| COc1ccc(N2COC3c4cccc5cccc(c45)C32)cc1 (centres undefined) | inconclusive: 2.82 µM [activator, single point] |  |
| COC(=O)c1c(C)n(-c2ccc(OC)cc2)c2ccc(O)cc12 | active: 11.2 µM |  |
| CCCC(=O)NC(=S)Nc1ccc(C(C)=O)cc1 | inconclusive: 0.891 µM [inhibitor, partial curve] |  |
| CCN(CC)S(=O)(=O)c1cccc(NC(=O)Nc2cccc(C(F)(F)F)c2)c1 | inconclusive: 2.82 µM [inhibitor, single point] |  |

Structures listed so far that contain a COOH group:

| SMILES | Potency | activity change, negative = inhibition |
| --- | --- | --- |
| O=C(O)CC(c1cccc2ccccc12)n1cccc1 (centres undefined) | inconclusive: 5.62 µM [activator, single point] |  |
| Cc1cc(C)nc(/N=C2\NC(=O)CC(C(=O)O)N2c2ccc(Oc3ccccc3)cc2)n1 (centres undefined) |  | inactive: 1.03% |
